Experimental data as given in article PMC12375503.
Results are given in words; binding and its absence hold for the method and conditions named. In cells and extracts the contact can be indirect. Some results given as binding are weak or reduced against the parent protein; the word gives no strength.

The chains behind the UniProt entries cited, without tags or fusion partners. Residues count along the entry.
UniProt P06729, residues 25-351: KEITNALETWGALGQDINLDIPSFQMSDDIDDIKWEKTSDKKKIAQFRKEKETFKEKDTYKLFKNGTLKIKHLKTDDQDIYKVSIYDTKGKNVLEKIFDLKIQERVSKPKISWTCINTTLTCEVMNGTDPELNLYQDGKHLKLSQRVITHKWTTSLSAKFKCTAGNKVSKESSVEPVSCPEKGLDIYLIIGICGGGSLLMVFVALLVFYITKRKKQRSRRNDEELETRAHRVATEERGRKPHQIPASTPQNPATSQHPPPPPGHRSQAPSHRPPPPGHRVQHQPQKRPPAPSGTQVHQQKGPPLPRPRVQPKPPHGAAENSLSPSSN
UniProt P19256, residues 29-250: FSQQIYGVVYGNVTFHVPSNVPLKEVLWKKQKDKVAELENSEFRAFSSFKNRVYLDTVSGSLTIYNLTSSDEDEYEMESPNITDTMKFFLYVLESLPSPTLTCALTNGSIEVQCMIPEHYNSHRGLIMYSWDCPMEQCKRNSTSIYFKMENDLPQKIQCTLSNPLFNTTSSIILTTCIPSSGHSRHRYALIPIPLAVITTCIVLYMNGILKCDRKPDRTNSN

Legend:
[1] = target: CD2 (human (endogenous in CD8+ T cells from human blood)) (UniProt P06729); assay: co-IP; lysate (strong RIPA buffer with protease inhibitors) of CTLs cocultured with MDA-MB-231 cells (1:5, 24 h); anti-CD2 antibody 1:100, 4°C, 12 h; Protein A/G magnetic beads; western blot for CD58; IgG negative control; groups CTL, sh-NC CTL and sh-CD2 CTL (CD2 knock-down)
[2] = target: CD2 (human (endogenous in CD8+ T cells from human blood)) (UniProt P06729); assay: co-IP; lysate (RIPA buffer) of homogenised mouse subcutaneous MDA-MB-231 tumor tissue after injection of sh-NC or sh-CD2 CTLs; anti-CD2 antibody 1:100, 4°C, 12 h; Protein A/G magnetic beads; western blot for CD58; IgG negative control

CD58 (from UniProt P19256 29-250) (ligand)
binding [1]: binds
binding [2]: binds
